From paper PMC5011961, “In vitro antimicrobial activities of animal-used quinoxaline 1,4-di-N-oxides against mycobacteria, mycoplasma and fungi” (BMC Veterinary Research, 2016)
Converted amounts (≈) assume the structure as drawn.

Test system: M. gallisepticum
Test: Antimycoplasma assay, MIC in microtiter plates
Conditions: Mycoplasmoides gallisepticum

For `CCC[C@@H]1C[C@@H](C(=O)N[C@@H]([C@H]2O[C@H](SC)[C@H](O)[C@@H](O)[C@H]2O)[C@H](C)Cl)N(C)C1` [Clindamycin, clindamycin], the MIC (M. gallisepticum BG44T (10^4ccu/mL)) was 0.6 µg/mL (≈ 1.41 µM) and the MIC (M. gallisepticum PG31 (10^8 ccu/mL)) was 3.2 µg/mL (≈ 7.53 µM).
